No constants are given. Whether binding was seen depends on the method and setting. Binding seen in cells or lysates may run through a third protein. These calls come from enrichment with a bait or labelling near it, and not all partners need be listed.
Molecular target: BMPR1A (bait of the immunoprecipitation-coupled mass spectrometry screen) (UniProt P36894)
Assay: affinity purification with mass spectrometry; protein-protein interaction screen, BMPR1A as a bait in immunoprecipitation-coupled mass spectrometry

The chains behind the UniProt entries cited, without tags or fusion partners. Residues count along the entry.
UniProt P36894, residues 24-532: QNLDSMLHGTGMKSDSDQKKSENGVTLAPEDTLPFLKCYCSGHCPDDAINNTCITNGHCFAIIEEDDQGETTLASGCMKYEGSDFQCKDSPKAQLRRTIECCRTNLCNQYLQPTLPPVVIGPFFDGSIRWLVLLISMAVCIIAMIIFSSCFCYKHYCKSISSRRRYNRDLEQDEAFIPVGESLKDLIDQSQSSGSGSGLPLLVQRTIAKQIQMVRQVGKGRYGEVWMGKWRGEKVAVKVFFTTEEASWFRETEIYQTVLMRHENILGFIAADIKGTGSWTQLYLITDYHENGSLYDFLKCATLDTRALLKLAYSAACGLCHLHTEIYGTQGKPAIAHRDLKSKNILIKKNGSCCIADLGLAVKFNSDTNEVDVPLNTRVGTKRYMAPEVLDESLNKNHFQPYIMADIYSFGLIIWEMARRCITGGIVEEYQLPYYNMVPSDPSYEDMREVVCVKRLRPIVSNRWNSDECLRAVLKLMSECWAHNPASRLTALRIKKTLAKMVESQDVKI
UniProt Q86VR2: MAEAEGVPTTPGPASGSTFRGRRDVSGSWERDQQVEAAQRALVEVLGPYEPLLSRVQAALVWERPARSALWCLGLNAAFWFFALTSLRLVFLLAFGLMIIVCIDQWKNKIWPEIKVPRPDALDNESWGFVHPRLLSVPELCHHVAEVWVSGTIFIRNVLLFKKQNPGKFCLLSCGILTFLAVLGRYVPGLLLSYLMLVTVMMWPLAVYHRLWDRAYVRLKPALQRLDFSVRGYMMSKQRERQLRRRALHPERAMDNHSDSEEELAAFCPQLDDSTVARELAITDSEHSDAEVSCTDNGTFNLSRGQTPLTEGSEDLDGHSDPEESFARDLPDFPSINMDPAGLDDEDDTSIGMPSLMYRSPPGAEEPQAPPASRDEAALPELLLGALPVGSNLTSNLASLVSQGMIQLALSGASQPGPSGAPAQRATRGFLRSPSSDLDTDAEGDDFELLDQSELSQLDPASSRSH

- binding: binds
Substance: FAM134C (hit of the immunoprecipitation-coupled mass spectrometry screen) (from UniProt Q86VR2 1-466)
